Publication PMC5469197, “ANGUSTIFOLIA, a Plant Homolog of CtBP/BARS Localizes to Stress Granules and Regulates Their Formation” (Frontiers in Plant Science, 2017)
These are yes or no findings as the source states them, for the method shown. In cells and extracts the contact can be indirect. Here binding means that the protein was enriched with, or labelled near, the bait; the list need not be complete. Where a sequence is shown, tags or fusion partners need not be part of it.

Chains of the proteins cited; added tags and fusions are not shown. Residues count along the entry.
UniProt O04151, residues 23-425: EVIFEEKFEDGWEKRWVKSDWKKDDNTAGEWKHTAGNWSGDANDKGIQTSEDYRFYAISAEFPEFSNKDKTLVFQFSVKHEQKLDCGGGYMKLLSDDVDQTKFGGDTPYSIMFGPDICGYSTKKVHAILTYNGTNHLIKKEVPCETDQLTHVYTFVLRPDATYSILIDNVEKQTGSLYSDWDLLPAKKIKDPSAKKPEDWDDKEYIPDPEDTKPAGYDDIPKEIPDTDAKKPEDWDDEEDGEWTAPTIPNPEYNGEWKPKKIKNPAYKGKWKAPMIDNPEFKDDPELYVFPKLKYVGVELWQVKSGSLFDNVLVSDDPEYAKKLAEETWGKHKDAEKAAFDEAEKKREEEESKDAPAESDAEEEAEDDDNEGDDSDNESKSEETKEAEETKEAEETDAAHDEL

T1: YFP-AN-strep (Arabidopsis thaliana) (UniProt O23702)
T1 sequence: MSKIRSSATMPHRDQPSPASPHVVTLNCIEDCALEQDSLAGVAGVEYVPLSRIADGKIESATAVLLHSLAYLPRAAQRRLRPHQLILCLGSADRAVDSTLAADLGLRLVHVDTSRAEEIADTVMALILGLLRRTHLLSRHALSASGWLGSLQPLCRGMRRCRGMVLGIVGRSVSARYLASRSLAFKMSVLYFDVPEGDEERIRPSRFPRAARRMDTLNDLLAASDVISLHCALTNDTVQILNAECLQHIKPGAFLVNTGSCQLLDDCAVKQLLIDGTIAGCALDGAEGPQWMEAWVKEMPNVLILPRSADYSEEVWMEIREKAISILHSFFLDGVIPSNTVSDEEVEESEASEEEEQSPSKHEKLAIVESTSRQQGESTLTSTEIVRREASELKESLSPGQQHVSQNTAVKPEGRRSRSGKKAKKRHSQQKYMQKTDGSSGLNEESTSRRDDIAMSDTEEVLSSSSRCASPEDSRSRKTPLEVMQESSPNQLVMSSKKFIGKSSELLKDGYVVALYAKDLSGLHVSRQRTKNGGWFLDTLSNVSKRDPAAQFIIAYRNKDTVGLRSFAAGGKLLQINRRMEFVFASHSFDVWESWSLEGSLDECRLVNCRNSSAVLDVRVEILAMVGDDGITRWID

B1: PO…-BINDING PROTEIN RBP47A, endogenous (protein, UniProt F4I3B3 1-445)
chain: MQTPNNNGSTDSVLPPTSAGTTPPPPLQQSTPPPQQQQQQQWQQQQQWMAAMQQYPAAAMAMMQQQQMMMYPHPQYAPYNQAAYQQHPQFQYAAYQQQQQQHHQSQQQPRGGSGGDDVKTLWVGDLLHWMDETYLHTCFSHTNEVSSVKVIRNKQTCQSEGYGFVEFLSRSAAEEALQSFSGVTMPNAEQPFRLNWASFSTGEKRASENGPDLSIFVGDLAPDVSDAVLLETFAGRYPSVKGAKVVIDSNTGRSKGYGFVRFGDENERSRAMTEMNGAFCSSRQMRVGIATPKRAAAYGQQNGSQALTLAGGHGGNGSMSDGESNNSTIFVGGLDADVTEEDLMQPFSDFGEVVSVKIPVGKGCGFVQFANRQSAEEAIGNLNGTVIGKNTVRLSWGRSPNKQWRSDSGNQWNGGYSRGQGYNNGYANQDSNMYATAAAAVPGAS
B2: COLD SHOCK PROTEIN 2 (CSP2), endogenous (protein, UniProt Q41188 1-203)
chain: MSGDNGGGERRKGSVKWFDTQKGFGFITPDDGGDDLFVHQSSIRSEGFRSLAAEEAVEFEVEIDNNNRPKAIDVSGPDGAPVQGNSGGGSSGGRGGFGGGRGGGRGSGGGYGGGGGGYGGRGGGGRGGSDCYKCGEPGHMARDCSEGGGGYGGGGGGYGGGGGYGGGGGGYGGGGRGGGGGGGSCYSCGESGHFARDCTSGGR
B3: PO… TRACT-BINDING PROTEIN HOMOLOG 3 (PTBP3), endogenous (protein, UniProt Q6ICX4 1-432)
chain: MAESSKVVHVRNVGHEISENDLLQLFQPFGVITKLVMLRAKNQALLQMQDVSSAVSALQFFTNVQPTIRGRNVYVQFSSHQELTTIEQNIHGREDEPNRILLVTIHHMLYPITVDVLHQVFSPYGFVEKLVTFQKSAGFQALIQYQVQQCAASARTALQGRNIYDGCCQLDIQFSNLEELQVNYNNDRSRDYTNPNLPAEQKGRSSHPCYGDTGVAYPQMANTSAIAAAFGGGLPPGITGTNDRCTVLVSNLNADSIDEDKLFNLFSLYGNIVRIKLLRNKPDHALVQMGDGFQAELAVHFLKGAMLFGKRLEVNFSKHPNITPGTDSHDYVNSNLNRFNRNAAKNYRYCCSPTKMIHLSTLPQDVTEEEVMNHVQEHGAVVNTKVFEMNGKKQALVQFENEEEAAEALVCKHATSLGGSIIRISFSQLQTI
B4: mRNA cap guanine-N7 methyltransferase 1, endogenous (protein, UniProt Q9LHQ7 1-370)
chain: MKRGFSDSPSSSAPPPSSRFKSNPEGDSQFLEDETTKNFARKVADHYSRRTNQTLEEREASPIIHLKKLNNWIKSVLIQLYARPDDAVLDLACGKGGDLIKWDKARIGYYVGIDIAEGSIEDCRTRYNGDADHHQRRKKFSFPSRLLCGDCFEVELDKILEEDAPFDICSCQFAMHYSWTTEARARRALANVSALLRPGGVFIGTMPDANVIIKKLREAEGLEIGNSVYWIRFGEEYSQKKFKSSSPFGIEYVFHLEDAVDCPEWIVPFNVFKSLAEEYDLELVFVKNSHEFVHEYMKKPEFVELMRRLGALGDGSNDQSTLSADEWEAAYLYLSFVLRKRGESDGARRSGRRKNGKMNLSKDDVLYIDS
B5: PO…-BINDING PROTEIN RBP47C′, endogenous (protein, UniProt Q9SX80 1-434)
chain: MADVKVQSESESSDSHPLVDYQSLPPYPPPHPPVEVEENQPKTSPTPPPPHWMRYPPVLMPQMMYAPPPPMPFSPYHQYPNHHHFHHQSRGNKHQNAFNGENKTIWVGDLQNWMDEAYLNSAFTSAEEREIVSLKVIRNKHNGSSEGYGFVEFESHDVADKVLQEFNGAPMPNTDQPFRLNWASFSTGEKRLENNGPDLSIFVGDLAPDVSDALLHETFSEKYPSVKAAKVVLDANTGRSKGYGFVRFGDENERTKAMTEMNGVKCSSRAMRIGPATPRKTNGYQQQGGYMPSGAFTRSEGDTINTTIFVGGLDSSVTDEDLKQPFSEFGEIVSVKIPVGKGCGFVQFVNRPNAEEALEKLNGTVIGKQTVRLSWGRNPANKQPRDKYGNQWVDPYYGGQFYNGYGYMVPQPDPRMYPAAPYYPMYGGHQQQVS
B6: PROTEIN MEI2-LIKE 5 (ATML5), endogenous (protein, UniProt Q8VWF5 1-800)
chain: MDIPHEAEAGAWGILPGFGRHHHPSSDATLFSSSLPVFPRGKLQLSDNRDGFSLIDDTAVSRTNKFNESADDFESHSIGNLLPDEEDLLTGMMDDLDLGELPDADDYDLFGSGGGMELDADFRDNLSMSGPPRLSLSSLGGNAIPQFNIPNGAGTVAGEHPYGEHPSRTLFVRNINSNVEDSELTALFEQYGDIRTLYTTCKHRGFVMISYYDIRSARMAMRSLQNKPLRRRKLDIHFSIPKDNPSEKDMNQGTLVVFNLDPSISNDDLHGIFGAHGEIKEIRETPHKRHHKFVEFYDVRGAEAALKALNRCEIAGKRIKVEPSRPGGARRSLMLQLNQDLENDDLHYLPMIGSPMANSPPMQGNWPLNSPVEGSPLQSVLSRSPVFGLSPTRNGHLSGLASALNSQGPSSKLAPIGRGQIGSNGFQQSSHLFQEPKMDNKYTGNLSPSGPLISNGGGIETLSGSEFLWGSPNARSEPSSSSVWSTSSTGNPLFSTRVDRSVPFPHQHQNQSRSHHHFHVGSAPSGVPLEKHFGFVPESSKDALFMNTVGLQGMSGMGLNGGSFSSKMANNGIINSGSMAENGFSSYRMMSSPRFSPMFLSSGLNPGRFASGFDSLYENGRPRRVENNSNQVESRKQFQLDLEKILNGEDSRTTLMIKNIPNKYTSKMLLAAIDEKNQGTYNFLYLPIDFKNKCNVGYAFINMLNPELIIPFYEAFNGKKWEKFNSEKVASLAYARIQGKSALIAHFQNSSLMNEDMRCRPIIFDTPNNPESVEQVVDEESKNMDLLDSQLSDDDGRERS
B7: GLYCINE-RICH RNA-BINDING PROTEIN 2 (GRP2), endogenous (protein, UniProt Q9SVM8 35-158)
chain: TKLFIGGLSWGTDDASLRDAFAHFGDVVDAKVIVDRETGRSRGFGFVNFNDEGAATAAISEMDGKELNGRHIRVNPANDRPSAPRAYGGGGGYSGGGGGYGGGGGGYGGGGGGYGGGGDGGGGF
B8: KH DOMAIN-CONTAINING PROTEIN (AT2G38610), endogenous (protein, UniProt Q9ZVI3 1-286)
chain: MSGLYNNSSYFSPARAASPQIRSTPEIDSSQYLTELLAEHQKLTPFMQVLPICSRLLNQEMFRVSGMMSNQGFGDFDRLRHRSPSPMASSNLMSNVSNTGLGGWNGLSQERLSGTPGMTMDWQGAPGSPSSYTVKRILRLEIPVDNYPNFNFVGRLLGPRGNSLKRVEATTGCRVFIRGKGSIKDPEKEDKLRGRPGYEHLNEQLHILIEADLPASIVEIRLRQAQEIIEELLKPVDESQDFIKRQQLRELALLNSNNLREESPGPSGGGSVSPFNSSGKRPKTGC

Biological target: T1, YFP-AN-strep (Arabidopsis thaliana)
Assay: affinity purification with mass spectrometry; YFP-AN-strep in crude extract of transfected Arabidopsis cell culture bound to Strep-Tactin MacroPrep, five washings, eluted with 2.5 mM desthiobiotin; co-purified proteins by mass spectrometry, against a control cell culture

Molecule	binding
CALRETICULIN-1 (CRT1), endogenous (from UniProt O04151 23-425)	binds
KEULE, endogenous	binds
B1	binds
B2	binds
B3	binds
B4	binds
B5	binds
B6	binds
B7	binds
B8	binds
